Drawing on PMC4703368, “A Conserved Interaction between a C-Terminal Motif in Norovirus VPg and the HEAT-1 Domain of eIF4G Is Essential for Translation Initiation” (PLoS Pathogens, 2016), this text covers binding for 5 substances.

Protein sequences, listed by entry. Tags and fused reporters are not part of them.
UniProt P29341: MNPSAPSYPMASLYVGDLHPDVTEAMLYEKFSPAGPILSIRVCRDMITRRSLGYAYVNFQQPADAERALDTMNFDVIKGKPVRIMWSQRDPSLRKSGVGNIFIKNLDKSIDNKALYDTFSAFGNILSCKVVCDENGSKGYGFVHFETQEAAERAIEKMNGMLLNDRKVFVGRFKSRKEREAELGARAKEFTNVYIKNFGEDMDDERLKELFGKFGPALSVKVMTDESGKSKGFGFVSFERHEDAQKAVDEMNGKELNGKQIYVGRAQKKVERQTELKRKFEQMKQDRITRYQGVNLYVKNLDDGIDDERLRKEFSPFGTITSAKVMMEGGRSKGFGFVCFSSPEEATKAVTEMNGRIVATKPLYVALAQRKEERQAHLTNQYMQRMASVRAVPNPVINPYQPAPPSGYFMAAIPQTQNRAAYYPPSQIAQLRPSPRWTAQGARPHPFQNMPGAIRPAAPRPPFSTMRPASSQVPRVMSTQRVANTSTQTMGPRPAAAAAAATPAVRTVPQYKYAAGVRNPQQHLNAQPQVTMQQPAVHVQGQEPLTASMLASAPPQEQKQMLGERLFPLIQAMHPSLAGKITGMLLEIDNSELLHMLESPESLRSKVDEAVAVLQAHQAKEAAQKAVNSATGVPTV
UniProt P60843: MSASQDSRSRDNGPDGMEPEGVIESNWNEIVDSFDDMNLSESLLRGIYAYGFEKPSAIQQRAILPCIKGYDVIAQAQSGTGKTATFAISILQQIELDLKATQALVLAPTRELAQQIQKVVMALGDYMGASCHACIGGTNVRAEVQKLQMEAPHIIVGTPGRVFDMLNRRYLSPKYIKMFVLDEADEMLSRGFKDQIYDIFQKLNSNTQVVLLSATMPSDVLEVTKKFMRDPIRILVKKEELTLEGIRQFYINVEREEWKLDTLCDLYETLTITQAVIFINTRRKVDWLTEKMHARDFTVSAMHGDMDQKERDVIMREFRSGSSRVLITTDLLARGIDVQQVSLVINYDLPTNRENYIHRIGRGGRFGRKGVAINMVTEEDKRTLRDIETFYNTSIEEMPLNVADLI
UniProt O70194: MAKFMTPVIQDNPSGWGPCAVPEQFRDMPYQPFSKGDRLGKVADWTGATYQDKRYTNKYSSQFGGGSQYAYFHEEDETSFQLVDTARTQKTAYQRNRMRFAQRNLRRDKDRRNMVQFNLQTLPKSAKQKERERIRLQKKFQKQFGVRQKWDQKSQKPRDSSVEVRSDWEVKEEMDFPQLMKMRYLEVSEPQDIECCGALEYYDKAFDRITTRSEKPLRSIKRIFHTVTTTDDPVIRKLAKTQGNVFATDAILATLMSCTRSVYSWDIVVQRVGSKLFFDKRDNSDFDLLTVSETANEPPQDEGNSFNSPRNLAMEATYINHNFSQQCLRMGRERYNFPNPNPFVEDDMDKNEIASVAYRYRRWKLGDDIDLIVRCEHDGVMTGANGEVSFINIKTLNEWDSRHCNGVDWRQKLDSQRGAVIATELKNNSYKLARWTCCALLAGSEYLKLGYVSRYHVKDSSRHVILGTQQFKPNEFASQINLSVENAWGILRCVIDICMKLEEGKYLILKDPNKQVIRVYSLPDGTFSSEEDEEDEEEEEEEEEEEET
UniProt Q6NZJ6: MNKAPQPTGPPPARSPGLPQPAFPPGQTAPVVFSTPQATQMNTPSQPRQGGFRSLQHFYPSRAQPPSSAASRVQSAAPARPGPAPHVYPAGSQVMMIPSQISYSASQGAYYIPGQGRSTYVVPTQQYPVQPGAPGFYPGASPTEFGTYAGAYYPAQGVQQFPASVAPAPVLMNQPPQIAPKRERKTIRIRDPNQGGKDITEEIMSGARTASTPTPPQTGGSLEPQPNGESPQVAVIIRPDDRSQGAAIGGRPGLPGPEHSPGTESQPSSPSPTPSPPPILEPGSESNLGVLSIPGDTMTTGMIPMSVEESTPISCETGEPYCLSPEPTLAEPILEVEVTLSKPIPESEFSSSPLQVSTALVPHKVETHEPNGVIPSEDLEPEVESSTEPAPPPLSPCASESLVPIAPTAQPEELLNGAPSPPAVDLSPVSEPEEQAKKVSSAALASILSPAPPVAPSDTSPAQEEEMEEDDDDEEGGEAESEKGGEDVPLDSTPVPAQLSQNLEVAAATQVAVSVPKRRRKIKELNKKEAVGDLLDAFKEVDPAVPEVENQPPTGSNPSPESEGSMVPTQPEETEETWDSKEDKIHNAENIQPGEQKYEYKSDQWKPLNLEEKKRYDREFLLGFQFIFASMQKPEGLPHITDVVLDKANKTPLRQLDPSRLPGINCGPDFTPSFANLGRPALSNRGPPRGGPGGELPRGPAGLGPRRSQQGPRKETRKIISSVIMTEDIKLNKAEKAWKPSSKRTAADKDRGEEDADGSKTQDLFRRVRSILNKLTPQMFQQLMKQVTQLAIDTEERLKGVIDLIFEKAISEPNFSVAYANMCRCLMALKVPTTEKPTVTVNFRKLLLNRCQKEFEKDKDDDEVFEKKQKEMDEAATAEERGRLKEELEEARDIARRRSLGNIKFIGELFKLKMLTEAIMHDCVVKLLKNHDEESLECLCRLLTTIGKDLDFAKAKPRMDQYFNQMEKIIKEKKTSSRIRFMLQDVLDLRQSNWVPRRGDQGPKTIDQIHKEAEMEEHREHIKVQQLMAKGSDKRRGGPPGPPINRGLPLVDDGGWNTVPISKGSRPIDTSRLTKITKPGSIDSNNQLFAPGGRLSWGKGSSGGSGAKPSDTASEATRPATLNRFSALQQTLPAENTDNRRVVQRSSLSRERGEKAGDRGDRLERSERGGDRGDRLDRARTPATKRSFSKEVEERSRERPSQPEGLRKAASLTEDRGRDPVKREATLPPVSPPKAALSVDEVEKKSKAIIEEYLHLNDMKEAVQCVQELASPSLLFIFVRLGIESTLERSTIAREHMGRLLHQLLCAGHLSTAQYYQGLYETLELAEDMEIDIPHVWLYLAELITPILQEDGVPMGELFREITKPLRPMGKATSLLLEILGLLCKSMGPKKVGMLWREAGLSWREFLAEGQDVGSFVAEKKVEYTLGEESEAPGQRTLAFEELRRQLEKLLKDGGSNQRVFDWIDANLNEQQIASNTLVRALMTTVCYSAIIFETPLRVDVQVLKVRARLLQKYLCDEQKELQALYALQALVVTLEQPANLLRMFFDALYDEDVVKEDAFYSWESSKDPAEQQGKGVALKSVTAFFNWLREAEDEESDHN
UniProt P63073: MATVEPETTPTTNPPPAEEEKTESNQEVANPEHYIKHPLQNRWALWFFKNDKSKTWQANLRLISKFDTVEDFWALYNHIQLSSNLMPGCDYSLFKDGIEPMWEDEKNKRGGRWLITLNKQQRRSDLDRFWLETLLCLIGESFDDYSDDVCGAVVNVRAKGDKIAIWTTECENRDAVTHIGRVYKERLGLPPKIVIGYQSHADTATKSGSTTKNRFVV

This assay concerns the target mCherry-MNV VPg(102–124) WT (murine norovirus (MNV1)). Description: co-IP; RFP-Trap_A agarose beads on lysates of transduced BV2 cells (10 mM Tris-HCl pH 7.5, 150 mM NaCl, 0.5% NP40, 0.5 mM EDTA), 2 h at 4°C; western blot. Background: A western blot detects proteins with antibodies after separation by electrophoresis.

Results are given in words; binding and its absence hold for the method and conditions named. Binding seen in cells or lysates may run through a third protein. Some entries that bind do so weakly or less than the wild type.

Regarding “PABP (endogenous, BV2 cells) (from UniProt P29341 1-636)”, the binding result is reported as “binds”.

“eIF4A (endogenous, BV2 cells) (from UniProt P60843 1-406)”: the binding result was “binds”.

Take “eIF3D (endogenous, BV2 cells) (from UniProt O70194 1-548)”: the binding entry was “binds”.

As to “eIF4G (endogenous, BV2 cells) (from UniProt Q6NZJ6 1-1600)”, the binding entry is given as “binds”.

On to “eIF4E (endogenous, BV2 cells) (from UniProt P63073 1-217)”, for which the binding result is listed as “binds”.
